PubChem BioAssay AID493246 | Drosophila RNAi Screening Center, 2011
The screen tested about 21,000 reagents; this is a random part of those that have a named target and a result. Over the whole deposit, 429 (2%) were called active. 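Values are raw and not normalised between plates; calls rest on per-plate z-scores that were not deposited.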 Reagents against one gene are numbered here. Reagent sequences are not shown. Not stated in the record: the amount of reagent, the time to read-out.

Purpose: 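Identify essential fly genes by loss of cell viability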 (primary screen)
Cells: Drosophila Kc and S2R+ cells
Reagent: long dsRNA against Drosophila genes
Measurement: 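Raw, unnormalised count of remaining cells in each well; per-plate z-scores of cell number underlie the calls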
Scale: Kc cell number and S2R+ cell number: higher = more cells remaining
Hit rule: 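Counted as a hit if cell number falls by a z-score of at least 3 within its plate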

mud (GeneID 44839) — Kc cell number, rep 1: 1.47e6; Kc cell number, rep 2: 1.49e6; S2R+ cell number, rep 1: 1.11e6; S2R+ cell number, rep 2: 1.24e6; Outcome: inactive
CG3330 (GeneID 43296) — Kc cell number, rep 1: 5.50e5; S2R+ cell number, rep 1: 8.49e5; Outcome: inactive
soti (GeneID 41748) — Kc cell number, rep 1: 1.63e6; Kc cell number, rep 2: 1.79e6; S2R+ cell number, rep 1: 1.37e6; S2R+ cell number, rep 2: 1.43e6; Outcome: inactive
wdb (GeneID 43312) — Kc cell number, rep 1: 1.47e6; Kc cell number, rep 2: 1.57e6; S2R+ cell number, rep 1: 9.47e5; S2R+ cell number, rep 2: 1.14e6; Outcome: inactive
krz (GeneID 53554) — Kc cell number, rep 1: 1.68e6; Kc cell number, rep 2: 1.69e6; S2R+ cell number, rep 1: 1.04e6; S2R+ cell number, rep 2: 1.07e6; Outcome: inactive
CG12376 (GeneID 35857) — Kc cell number, rep 1: 1.51e6; Kc cell number, rep 2: 1.49e6; S2R+ cell number, rep 1: 1.22e6; S2R+ cell number, rep 2: 1.30e6; Outcome: inactive
Sec3 (GeneID 39940) — Kc cell number, rep 1: 1.45e6; Kc cell number, rep 2: 1.44e6; S2R+ cell number, rep 1: 1.20e6; S2R+ cell number, rep 2: 1.25e6; Outcome: inactive

Only “Kc cell number, rep 1” (2 entries from above):
krz (GeneID 53554): 1.68e6
CG12376 (GeneID 35857): 1.51e6

The results go on:
Ufsp1 (GeneID 246489) — Kc cell number, rep 1: 1.41e6; Kc cell number, rep 2: 1.48e6; S2R+ cell number, rep 1: 9.71e5; S2R+ cell number, rep 2: 1.06e6; Outcome: inactive
RapGAP1 (GeneID 34032) #1 — Kc cell number, rep 1: 1.53e6; Kc cell number, rep 2: 1.60e6; S2R+ cell number, rep 1: 9.98e5; S2R+ cell number, rep 2: 1.11e6; Outcome: inactive
RapGAP1 (GeneID 34032) #2 — Kc cell number, rep 1: 1.67e6; Kc cell number, rep 2: 1.54e6; S2R+ cell number, rep 1: 1.22e6; S2R+ cell number, rep 2: 1.38e6; Outcome: inactive
RapGAP1 (GeneID 34032) #3 — Kc cell number, rep 1: 1.18e6; Kc cell number, rep 2: 1.26e6; S2R+ cell number, rep 1: 6.10e5; S2R+ cell number, rep 2: 9.31e5; Outcome: inactive
aly (GeneID 45960) — Kc cell number, rep 1: 1.44e6; Kc cell number, rep 2: 1.35e6; S2R+ cell number, rep 1: 1.17e6; S2R+ cell number, rep 2: 1.35e6; Outcome: inactive
CG14736 (GeneID 41466) — Kc cell number, rep 1: 1.68e6; Kc cell number, rep 2: 1.62e6; S2R+ cell number, rep 1: 1.19e6; S2R+ cell number, rep 2: 1.33e6; Outcome: inactive
gnu (GeneID 39615) — Kc cell number, rep 1: 1.51e6; Kc cell number, rep 2: 1.59e6; S2R+ cell number, rep 1: 1.36e6; S2R+ cell number, rep 2: 1.37e6; Outcome: inactive
miple2 (GeneID 44787) — Kc cell number, rep 1: 1.25e6; Kc cell number, rep 2: 1.26e6; S2R+ cell number, rep 1: 1.08e6; S2R+ cell number, rep 2: 1.24e6; Outcome: inactive
rtp (GeneID 40627) — Kc cell number, rep 1: 1.66e6; Kc cell number, rep 2: 1.63e6; S2R+ cell number, rep 1: 1.32e6; S2R+ cell number, rep 2: 1.35e6; Outcome: inactive
nSyb (GeneID 38196) — Kc cell number, rep 1: 1.43e6; Kc cell number, rep 2: 1.48e6; S2R+ cell number, rep 1: 1.12e6; S2R+ cell number, rep 2: 1.20e6; Outcome: inactive
Mcm3 (GeneID 31449) — Kc cell number, rep 1: 6.00e5; S2R+ cell number, rep 1: 8.81e5; Outcome: inactive
CG10140 (GeneID 39511) — Kc cell number, rep 1: 1.30e6; Kc cell number, rep 2: 1.30e6; S2R+ cell number, rep 1: 1.31e6; S2R+ cell number, rep 2: 1.37e6; Outcome: inactive
Vha16-2 (GeneID 39282) — Kc cell number, rep 1: 1.28e6; Kc cell number, rep 2: 1.30e6; S2R+ cell number, rep 1: 1.33e6; S2R+ cell number, rep 2: 1.38e6; Outcome: inactive
CrebA (GeneID 39682) — Kc cell number, rep 1: 1.42e6; Kc cell number, rep 2: 1.57e6; S2R+ cell number, rep 1: 1.22e6; S2R+ cell number, rep 2: 1.28e6; Outcome: inactive
